The chains are these.
B1: endogenous AIM2 (protein, UniProt O14862 1-343)
chain: MESKYKEILLLTGLDNITDEELDRFKFFLSDEFNIATGKLHTANRIQVATLMIQNAGAVSAVMKTIRIFQKLNYMLLAKRLQEEKEKVDKQYKSVTKPKPLSQAEMSPAASAAIRNDVAKQRAAPKVSPHVKPEQKQMVAQQESIREGFQKRCLPVMVLKAKKPFTFETQEGKQEMFHATVATEKEFFFVKVFNTLLKDKFIPKRIIIIARYYRHSGFLEVNSASRVLDAESDQKVNVPLNIIRKAGETPKINTLQTQPLGTIVNGLFVVQKVTEKKKNILFDLSDNTGKMEVLGVRNEDTMKCKEGDKVRLTFFTLSKNGEKLQLTSGVHSTIKVIKAKKKT
B2: endogenous MDA5 (protein, UniProt Q9BYX4 1-1025)
chain: MSNGYSTDENFRYLISCFRARVKMYIQVEPVLDYLTFLPAEVKEQIQRTVATSGNMQAVELLLSTLEKGVWHLGWTREFVEALRRTGSPLAARYMNPELTDLPSPSFENAHDEYLQLLNLLQPTLVDKLLVRDVLDKCMEEELLTIEDRNRIAAAENNGNESGVRELLKRIVQKENWFSAFLNVLRQTGNNELVQELTGSDCSESNAEIENLSQVDGPQVEEQLLSTTVQPNLEKEVWGMENNSSESSFADSSVVSESDTSLAEGSVSCLDESLGHNSNMGSDSGTMGSDSDEENVAARASPEPELQLRPYQMEVAQPALEGKNIIICLPTGSGKTRVAVYIAKDHLDKKKKASEPGKVIVLVNKVLLVEQLFRKEFQPFLKKWYRVIGLSGDTQLKISFPEVVKSCDIIISTAQILENSLLNLENGEDAGVQLSDFSLIIIDECHHTNKEAVYNNIMRHYLMQKLKNNRLKKENKPVIPLPQILGLTASPGVGGATKQAKAEEHILKLCANLDAFTIKTVKENLDQLKNQIQEPCKKFAIADATREDPFKEKLLEIMTRIQTYCQMSPMSDFGTQPYEQWAIQMEKKAAKEGNRKERVCAEHLRKYNEALQINDTIRMIDAYTHLETFYNEEKDKKFAVIEDDSDEGGDDEYCDGDEDEDDLKKPLKLDETDRFLMTLFFENNKMLKRLAENPEYENEKLTKLRNTIMEQYTRTEESARGIIFTKTRQSAYALSQWITENEKFAEVGVKAHHLIGAGHSSEFKPMTQNEQKEVISKFRTGKINLLIATTVAEEGLDIKECNIVIRYGLVTNEIAMVQARGRARADESTYVLVAHSGSGVIEHETVNDFREKMMYKAIHCVQNMKPEEYAHKILELQMQSIMEKKMKTKRNIAKHYKNNPSLITFLCKNCSVLACSGEDIHVIEKMHHVNMTPEFKELYIVRENKALQKKCADYQINGEIICKCGQAWGTMMVHKGLDLPCLKIRNFVVVFKNNSTKKQYKKWVELPITFPNLDYSECCLFSDED
B3: endogenous TLR7 (receptor, UniProt Q9NYK1 27-1049)
chain: ARWFPKTLPCDVTLDVPKNHVIVDCTDKHLTEIPGGIPTNTTNLTLTINHIPDISPASFHRLDHLVEIDFRCNCVPIPLGSKNNMCIKRLQIKPRSFSGLTYLKSLYLDGNQLLEIPQGLPPSLQLLSLEANNIFSIRKENLTELANIEILYLGQNCYYRNPCYVSYSIEKDAFLNLTKLKVLSLKDNNVTAVPTVLPSTLTELYLYNNMIAKIQEDDFNNLNQLQILDLSGNCPRCYNAPFPCAPCKNNSPLQIPVNAFDALTELKVLRLHSNSLQHVPPRWFKNINKLQELDLSQNFLAKEIGDAKFLHFLPSLIQLDLSFNFELQVYRASMNLSQAFSSLKSLKILRIRGYVFKELKSFNLSPLHNLQNLEVLDLGTNFIKIANLSMFKQFKRLKVIDLSVNKISPSGDSSEVGFCSNARTSVESYEPQVLEQLHYFRYDKYARSCRFKNKEASFMSVNESCYKYGQTLDLSKNSIFFVKSSDFQHLSFLKCLNLSGNLISQTLNGSEFQPLAELRYLDFSNNRLDLLHSTAFEELHKLEVLDISSNSHYFQSEGITHMLNFTKNLKVLQKLMMNDNDISSSTSRTMESESLRTLEFRGNHLDVLWREGDNRYLQLFKNLLKLEELDISKNSLSFLPSGVFDGMPPNLKNLSLAKNGLKSFSWKKLQCLKNLETLDLSHNQLTTVPERLSNCSRSLKNLILKNNQIRSLTKYFLQDAFQLRYLDLSSNKIQMIQKTSFPENVLNNLKMLLLHHNRFLCTCDAVWFVWWVNHTEVTIPYLATDVTCVGPGAHKGQSVISLDLYTCELDLTNLILFSLSISVSLFLMVMMTASHLYFWDVWYIYHFCKAKIKGYQRLISPDCCYDAFIVYDTKDPAVTEWVLAELVAKLEDPREKHFNLCLEERDWLPGQPVLENLSQSIQLSKKTVFVMTDKYAKTENFKIAFYLSHQRLMDEKVDVIILIFLEKPFQKSKFLQLRKRLCGSSVLEWPTNPQAHPYFWQCLKNALATDNHVAYSQVFKETV
B4: endogenous RIG-I (protein, UniProt O95786 1-925)
chain: MTTEQRRSLQAFQDYIRKTLDPTYILSYMAPWFREEEVQYIQAEKNNKGPMEAATLFLKFLLELQEEGWFRGFLDALDHAGYSGLYEAIESWDFKKIEKLEEYRLLLKRLQPEFKTRIIPTDIISDLSECLINQECEEILQICSTKGMMAGAEKLVECLLRSDKENWPKTLKLALEKERNKFSELWIVEKGIKDVETEDLEDKMETSDIQIFYQEDPECQNLSENSCPPSEVSDTNLYSPFKPRNYQLELALPAMKGKNTIICAPTGCGKTFVSLLICEHHLKKFPQGQKGKVVFFANQIPVYEQQKSVFSKYFERHGYRVTGISGATAENVPVEQIVENNDIIILTPQILVNNLKKGTIPSLSIFTLMIFDECHNTSKQHPYNMIMFNYLDQKLGGSSGPLPQVIGLTASVGVGDAKNTDEALDYICKLCASLDASVIATVKHNLEELEQVVYKPQKFFRKVESRISDKFKYIIAQLMRDTESLAKRICKDLENLSQIQNREFGTQKYEQWIVTVQKACMVFQMPDKDEESRICKALFLYTSHLRKYNDALIISEHARMKDALDYLKDFFSNVRAAGFDEIEQDLTQRFEEKLQELESVSRDPSNENPKLEDLCFILQEEYHLNPETITILFVKTRALVDALKNWIEGNPKLSFLKPGILTGRGKTNQNTGMTLPAQKCILDAFKASGDHNILIATSVADEGIDIAQCNLVILYEYVGNVIKMIQTRGRGRARGSKCFLLTSNAGVIEKEQINMYKEKMMNDSILRLQTWDEAVFREKILHIQTHEKFIRDSQEKPKPVPDKENKKLLCRKCKALACYTADVRVIEECHYTVLGDAFKECFVSRPHPKPKQFSSFEKRAKIFCARQNCSHDWGIHVKYKTFEIPVIKIESFVVEDIATGVQTLYSKWKDFHFEKIPFDPAEMSK
B5: Myc-AIM2 (protein, UniProt O14862 1-343)
chain: B1 chain
B6: Flag-NDP52 (protein, UniProt Q13137 1-446)
chain: MEETIKDPPTSAVLLDHCHFSQVIFNSVEKFYIPGGDVTCHYTFTQHFIPRRKDWIGIFRVGWKTTREYYTFMWVTLPIDLNNKSAKQQEVQFKAYYLPKDDEYYQFCYVDEDGVVRGASIPFQFRPENEEDILVVTTQGEVEEIEQHNKELCKENQELKDSCISLQKQNSDMQAELQKKQEELETLQSINKKLELKVKEQKDYWETELLQLKEQNQKMSSENEKMGIRVDQLQAQLSTQEKEMEKLVQGDQDKTEQLEQLKKENDHLFLSLTEQRKDQKKLEQTVEQMKQNETTAMKKQQELMDENFDLSKRLSENEIICNALQRQKERLEGENDLLKRENSRLLSYMGLDFNSLPYQVPTSDEGGARQNPGLAYGNPYSGIQESSSPSPLSIKKCPICKADDICDHTLEQQQMQPLCFNCPICDKIFPATEKQIFEDHVFCHSL
B7: Flag-RIG-I (protein, UniProt O95786 1-925)
chain: B4 chain

Protein sequences, listed by entry. Tags and fused reporters are not part of them. Residues count along the entry.
UniProt Q8N884: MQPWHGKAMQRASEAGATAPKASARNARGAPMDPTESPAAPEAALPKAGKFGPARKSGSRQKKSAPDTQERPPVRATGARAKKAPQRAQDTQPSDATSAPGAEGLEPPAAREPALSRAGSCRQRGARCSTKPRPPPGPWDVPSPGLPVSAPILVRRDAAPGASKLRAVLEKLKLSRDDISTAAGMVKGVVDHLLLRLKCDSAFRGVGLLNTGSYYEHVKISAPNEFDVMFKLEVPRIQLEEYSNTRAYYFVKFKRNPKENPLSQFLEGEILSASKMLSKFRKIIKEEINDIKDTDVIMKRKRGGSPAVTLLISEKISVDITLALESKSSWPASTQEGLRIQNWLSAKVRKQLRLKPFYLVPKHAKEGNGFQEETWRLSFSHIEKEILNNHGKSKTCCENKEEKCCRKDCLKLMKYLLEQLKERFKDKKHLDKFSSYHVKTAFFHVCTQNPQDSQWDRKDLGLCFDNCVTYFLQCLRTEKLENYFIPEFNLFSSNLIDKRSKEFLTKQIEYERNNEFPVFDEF
UniProt O00206, residues 24-839: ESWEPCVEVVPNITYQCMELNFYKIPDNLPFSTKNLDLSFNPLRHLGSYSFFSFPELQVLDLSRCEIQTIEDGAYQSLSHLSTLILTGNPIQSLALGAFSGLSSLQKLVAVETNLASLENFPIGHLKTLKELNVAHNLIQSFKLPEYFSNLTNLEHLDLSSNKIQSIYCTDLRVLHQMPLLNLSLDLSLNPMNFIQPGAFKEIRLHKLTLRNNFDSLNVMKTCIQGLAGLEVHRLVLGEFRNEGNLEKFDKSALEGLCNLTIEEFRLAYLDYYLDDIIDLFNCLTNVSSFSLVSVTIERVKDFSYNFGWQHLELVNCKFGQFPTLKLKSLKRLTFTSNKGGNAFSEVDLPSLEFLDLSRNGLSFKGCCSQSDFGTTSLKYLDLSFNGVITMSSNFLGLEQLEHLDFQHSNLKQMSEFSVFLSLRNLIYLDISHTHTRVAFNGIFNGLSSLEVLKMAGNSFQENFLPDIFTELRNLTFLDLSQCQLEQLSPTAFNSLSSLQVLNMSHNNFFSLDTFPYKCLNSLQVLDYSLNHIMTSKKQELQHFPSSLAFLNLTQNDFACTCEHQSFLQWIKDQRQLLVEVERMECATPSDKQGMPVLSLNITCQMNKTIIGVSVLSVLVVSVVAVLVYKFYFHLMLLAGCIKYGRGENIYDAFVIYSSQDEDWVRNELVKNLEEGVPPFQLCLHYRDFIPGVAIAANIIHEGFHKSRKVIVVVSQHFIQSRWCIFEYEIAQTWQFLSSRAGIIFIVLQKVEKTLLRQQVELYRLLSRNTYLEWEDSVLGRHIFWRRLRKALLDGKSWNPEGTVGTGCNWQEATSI
UniProt O15455, residues 24-904: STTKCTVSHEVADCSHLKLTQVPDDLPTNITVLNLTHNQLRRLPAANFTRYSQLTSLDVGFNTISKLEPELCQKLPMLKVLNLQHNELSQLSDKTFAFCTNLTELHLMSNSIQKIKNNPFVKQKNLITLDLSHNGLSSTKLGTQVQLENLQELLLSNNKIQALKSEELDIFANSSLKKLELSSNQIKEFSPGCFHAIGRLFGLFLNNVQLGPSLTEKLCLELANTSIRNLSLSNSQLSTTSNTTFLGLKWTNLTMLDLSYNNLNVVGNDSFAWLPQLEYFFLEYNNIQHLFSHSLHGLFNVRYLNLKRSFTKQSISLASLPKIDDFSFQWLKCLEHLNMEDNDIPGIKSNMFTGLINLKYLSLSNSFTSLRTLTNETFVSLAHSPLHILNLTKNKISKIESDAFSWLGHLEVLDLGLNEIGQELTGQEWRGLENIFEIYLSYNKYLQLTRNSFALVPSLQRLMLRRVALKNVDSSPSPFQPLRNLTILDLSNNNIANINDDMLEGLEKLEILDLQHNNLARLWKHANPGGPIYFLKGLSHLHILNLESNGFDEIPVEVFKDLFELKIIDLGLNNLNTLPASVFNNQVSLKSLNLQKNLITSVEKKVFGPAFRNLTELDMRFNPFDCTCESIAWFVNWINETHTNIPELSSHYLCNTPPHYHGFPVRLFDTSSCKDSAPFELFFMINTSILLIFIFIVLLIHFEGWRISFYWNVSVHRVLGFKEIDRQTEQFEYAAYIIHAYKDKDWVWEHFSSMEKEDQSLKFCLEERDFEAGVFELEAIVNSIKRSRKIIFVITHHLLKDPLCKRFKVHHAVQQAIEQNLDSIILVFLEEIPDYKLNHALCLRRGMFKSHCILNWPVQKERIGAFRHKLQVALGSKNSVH
UniProt Q9NPP4: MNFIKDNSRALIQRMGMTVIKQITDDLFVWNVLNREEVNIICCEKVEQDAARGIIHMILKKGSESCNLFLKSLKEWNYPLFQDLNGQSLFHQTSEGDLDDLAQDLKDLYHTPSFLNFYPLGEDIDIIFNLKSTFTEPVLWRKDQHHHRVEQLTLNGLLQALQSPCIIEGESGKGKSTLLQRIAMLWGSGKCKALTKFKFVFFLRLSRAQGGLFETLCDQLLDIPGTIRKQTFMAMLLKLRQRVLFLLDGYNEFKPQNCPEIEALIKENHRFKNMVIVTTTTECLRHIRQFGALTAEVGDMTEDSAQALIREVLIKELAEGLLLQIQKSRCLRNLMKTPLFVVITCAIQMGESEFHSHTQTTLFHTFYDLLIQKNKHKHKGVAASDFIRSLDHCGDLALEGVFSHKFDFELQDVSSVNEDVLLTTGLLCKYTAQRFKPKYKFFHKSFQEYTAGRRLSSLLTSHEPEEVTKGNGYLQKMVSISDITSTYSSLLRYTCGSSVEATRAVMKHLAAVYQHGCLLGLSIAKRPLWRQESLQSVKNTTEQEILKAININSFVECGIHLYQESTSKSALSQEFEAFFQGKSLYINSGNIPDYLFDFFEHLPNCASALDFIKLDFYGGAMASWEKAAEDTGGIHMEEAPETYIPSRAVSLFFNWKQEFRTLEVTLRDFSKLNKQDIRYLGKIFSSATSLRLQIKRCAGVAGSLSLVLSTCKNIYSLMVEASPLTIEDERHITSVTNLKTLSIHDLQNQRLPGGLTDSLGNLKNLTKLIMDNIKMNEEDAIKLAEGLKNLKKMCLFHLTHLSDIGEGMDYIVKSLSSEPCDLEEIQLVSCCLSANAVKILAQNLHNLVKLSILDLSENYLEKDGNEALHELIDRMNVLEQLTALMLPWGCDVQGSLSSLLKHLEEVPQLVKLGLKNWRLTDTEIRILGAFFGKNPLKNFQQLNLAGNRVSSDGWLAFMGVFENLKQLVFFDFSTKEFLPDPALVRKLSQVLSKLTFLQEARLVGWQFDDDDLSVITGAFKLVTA
UniProt Q96CV9: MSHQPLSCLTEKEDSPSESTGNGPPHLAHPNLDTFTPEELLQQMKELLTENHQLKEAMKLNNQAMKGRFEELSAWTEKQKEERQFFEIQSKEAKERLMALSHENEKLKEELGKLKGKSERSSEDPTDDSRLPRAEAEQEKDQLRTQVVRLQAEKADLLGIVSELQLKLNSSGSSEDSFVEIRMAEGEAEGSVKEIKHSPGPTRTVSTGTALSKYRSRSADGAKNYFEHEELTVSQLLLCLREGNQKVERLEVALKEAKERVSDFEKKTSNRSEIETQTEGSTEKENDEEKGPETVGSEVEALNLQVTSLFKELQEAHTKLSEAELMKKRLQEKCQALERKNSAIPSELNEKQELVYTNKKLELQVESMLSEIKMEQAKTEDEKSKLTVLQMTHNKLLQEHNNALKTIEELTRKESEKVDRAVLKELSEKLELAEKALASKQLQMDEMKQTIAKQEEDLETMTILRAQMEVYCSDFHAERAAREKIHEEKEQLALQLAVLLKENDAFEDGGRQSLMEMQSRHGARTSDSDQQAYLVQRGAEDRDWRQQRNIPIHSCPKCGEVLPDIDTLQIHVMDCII

Results are given in words; binding and its absence hold for the method and conditions named. In cells and extracts the contact can be indirect. Some entries that bind do so weakly or less than the wild type. For part of these data: Sequences can lack the tags named with a protein.

For the first assay, the target named is T1, endogenous IRGM (human (endogenous in THP-1)) (UniProt A1A4Y4).
T1 sequence: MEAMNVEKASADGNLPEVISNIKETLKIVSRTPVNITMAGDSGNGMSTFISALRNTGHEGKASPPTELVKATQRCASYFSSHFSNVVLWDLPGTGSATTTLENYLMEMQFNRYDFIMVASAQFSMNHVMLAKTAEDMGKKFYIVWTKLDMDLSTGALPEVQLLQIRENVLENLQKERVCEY
The assay is described as follows: co-IP.
Turning to B1, the binding result is on record as “no binding”. B2: the binding entry is “no binding”. On the same count and under the same terms, then B3, with “no binding”. With B4, the binding result was “binds”.

The target in a further assay is T2, GFP-IRGM (human) (UniProt A1A4Y4).
T2 sequence: T1 sequence
The assay is described as follows: co-IP.
Take B5: the binding result was “no binding”. The same measure, in the same setting: then B6, with “no binding”; and B7, with “binds”.

For a further assay, the target named is T1, endogenous IRGM (human (endogenous in THP-1)). The assay is described as follows: co-IP. The source holds these as a separate data set.
For the molecule “endogenous cGAS (from UniProt Q8N884 1-522)”, the binding entry is “binds”. Same read-out and setting: then “endogenous TLR4 (from UniProt O00206 24-839) (receptor)”, with “no binding”.

As for “endogenous TLR3 (from UniProt O15455 24-904) (receptor)”, the binding entry is given as “binds”. With “endogenous NLRC4 (from UniProt Q9NPP4 1-1024)”, the binding entry was “no binding”.

The target of the next assay is T2, GFP-IRGM (human). In words: co-IP. The source holds these as a separate data set.
Take “Flag-Optineurin (from UniProt Q96CV9 1-577)”: the binding entry is listed as “no binding”. The same measure, in the same setting: then “Flag-TLR3 (from UniProt O15455 24-904) (receptor)”, with “binds”; and Flag-p62 (from UniProt Q13501 1-440), with “binds”.

In the case of Flag-cGAS (from UniProt Q8N884 1-522), the binding result is given as “binds”.

These data come from doi:10.1101/815506.
